According to patent publication US20100004432, “APTAMER AGAINST MIDKINE AND USE THEREOF” (RIBOMIC INC., published 2010):
For some of these results: Protein sequences can lack the tags named with them. For some of these results: Construct, isoform or probe ends are uncertain for at least one entry. For some of these results: A negative result means that nothing was seen under these conditions.

How the values were obtained:
[1] = molecular target: T1, pleiotrophin (UniProt P21246); test: activity in cells; details: 2'-F pyrimidines, purified recombinant protein, protein details: expressed in yeast; for functional effect of the aptamer: pleiotrophin-driven migration, 100 nM; for functional effect of the aptamer (% of SEQ 5 inhibition of midkine): 100 nM RNA
T1 sequence (looked up, limits assumed): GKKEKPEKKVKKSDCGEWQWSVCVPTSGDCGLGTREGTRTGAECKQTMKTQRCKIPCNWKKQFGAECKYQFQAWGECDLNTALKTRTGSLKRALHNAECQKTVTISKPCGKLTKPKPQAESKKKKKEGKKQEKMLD

[2] = molecular target: T2, midkine (full-length) (Homo sapiens) (UniProt P21741); test: activity in cells; details: purified recombinant protein, protein details: expressed in yeast; for functional effect of the aptamer (% of SEQ 5 inhibition): 100 nM RNA
T2 sequence (looked up, limits assumed): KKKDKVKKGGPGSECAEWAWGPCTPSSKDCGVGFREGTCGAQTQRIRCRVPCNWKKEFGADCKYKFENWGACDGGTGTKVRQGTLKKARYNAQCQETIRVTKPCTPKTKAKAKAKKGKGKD

[3] = system: IgG1 (Homo sapiens); test: SPR; details: 2'-F pyrimidines; RNA immobilized on SA chip; purified native protein; protein details: Calbiochem
[4] = 2'-F pyrimidines, variant of SEQ ID NO:32

## GGGAGAGGAGAAGAGGAAAUAGUUAAGGGUGAAUUUGCGAAAGCUAUUUUAGUCGCAGUAGAGGACAGGAAUGAGGA [SEQ ID NO:1]
[1]
  functional effect of the aptamer: 0 % inhibition

## GGGAGAGGAGAAGAGGAAGUGUGCACAGGGGUUGGUGUCGGGUGCAUACAG [SEQ ID NO:35]
[1]; variant of SEQ ID NO:32
  functional effect of the aptamer (% of SEQ 5 inhibition of midkine): 0

## GGGAAGGAGGAAGUGCACCCGGGUUGGUGUCGGGUGCAC [SEQ ID NO:65]
[2]; 2'-F pyrimidines, 500 nM RNA, variant of SEQ ID NO:61
  functional effect of the aptamer (% of SEQ 40 inhibition): 0

## GGGAGAGGAGAAGAGGAAGUGCACAGGGGUUGGUGUCGGGUGCACAGUAUAAG [SEQ ID NO:36]
[1]; variant of SEQ ID NO:32
  functional effect of the aptamer (% of SEQ 5 inhibition of midkine): 27

## GGGAGAGGAGAAGAGGAACGUGCUCUGUACGAGGAGUAGCCGGAAAGAAGGCGGUGUGUAGAGGACAGGAAUGAGA [SEQ ID NO:4]
[3]
  binding result: no binding
[1]
  functional effect of the aptamer: 8 % inhibition

## GGGAGAGGAACGCUACGAGGAGUAGCGGAAAGAAGCGGCGUAGC [SEQ ID NO:21]
[2]; 2'-F pyrimidines, 500 nM RNA, activity lost, variant of SEQ ID NO:17
  functional effect of the aptamer (% of SEQ 4 inhibition): 0

## GGGUUUUUUUUUUUUUUUGUGUGCACAGGGGUUGGUGUCGGGUGCAUACAGUAUAAG [SEQ ID NO:38]
[2]; [4]
  functional effect of the aptamer (% of SEQ 5 inhibition): 0

## GGGAGAGGAGAGAGGAAGUGCACAGGGGUUGGUGUCGGGUGCACAGUAUAAG [SEQ ID NO:42]
[1]; variant of SEQ ID NO:36
  functional effect of the aptamer (% of SEQ 5 inhibition of midkine): 8.7

## GGGAAGGAGAAGAGGAAGUGCACAGGGGUUGGUGUCGGGUGCACAGUAUAAG [SEQ ID NO:41]
[1]; variant of SEQ ID NO:36
  functional effect of the aptamer (% of SEQ 5 inhibition of midkine): 8.1

## GGGAGAGGAGAAGAGGAAGCACAGGGGUUGGUGUCGGGUGCAGUAUAAG [SEQ ID NO:37]
[2]; [4]
  functional effect of the aptamer (% of SEQ 5 inhibition): 0

## TGGTTGGTGTGGTTGGTAAAAAAAAAAAAAAAA [Thrombin-S]
[2]; PS at marked linkages t'ggttggtgtggttgg't, 500 nM, control, single-stranded DNA
  functional effect (% of SEQ 40 inhibition): 0

## GGAGGAAGUGUGCACAGGGGUUGGUGUCGGGUGCAUACAGUAUAAG [SEQ ID NO:34]
[2]; 2'-F pyrimidines, variant of SEQ ID NO:5
  functional effect of the aptamer (% of SEQ 5 inhibition): 0

## GGGAGAGGAGAAGAGGAAGUGUGCACAGGGGUUGGUGUCGGGUGCAUACAGUAUAAGAUAGAGGACA [SEQ ID NO:31]
[1]; variant of SEQ ID NO:5
  functional effect of the aptamer (% of SEQ 5 inhibition of midkine): 17

## GGAGAAGAGGAAGUGUGCACAGGGGUUGGUGUCGGGUGCAUACAGUAUAAGAUAGAGGACA [SEQ ID NO:33]
[1]; variant of SEQ ID NO:5
  functional effect of the aptamer (% of SEQ 5 inhibition of midkine): 5

## GGGAGAGGAGAAGAGGAAGUGUGCACAGGGGUUGGUGUCGGGUGCAUAC [SEQ ID NO:40]
[1]; variant of SEQ ID NO:36
  functional effect of the aptamer (% of SEQ 5 inhibition of midkine): 0

## GGGAGAGGAGAAGAGGAAGUGCACAGGGGUUGGUGUCGGGUGCACAGUAUAAG [SEQ ID NO:36-1]
[1]; 2'-OMe on all of 5' single strand (nt 1-18), variant of SEQ ID NO:36
  functional effect of the aptamer (% of SEQ 5 inhibition of midkine): 0

## GGGAGAGGAGAAGAGGAAGUGUGCACAGGGGUUGGUGUCGGGUGCAUACAGUAUAAG [SEQ ID NO:32]
[1]; variant of SEQ ID NO:5
  functional effect of the aptamer (% of SEQ 5 inhibition of midkine): 11

## GGGAGAGGAGAAGAGGAAGUGUGCACAGGGGUUGGUGUCGGGUGCAUACAGUAUAAGAUAGAGGACAGGAAUGAGA [SEQ ID NO:5]
[3]
  binding result: no binding
